# For at least one compound, name, drawing or mass did not settle the structure.
# System: adjuvant induced arthritis
# Experiment: IL-6 mediated adjuvant arthritis
# Assay type: in vivo
# Conditions: Lewis rats, osmotic mini-pumps, positive control
smiles,measurement,value
C[C@@H]1C[C@H]2[C@@H]3CCC4=CC(=O)C=C[C@]4(C)[C@@]3(F)[C@@H](O)C[C@]2(C)[C@@]1(O)C(=O)CO [Dexamethasone],effect on clinical signs of arthritis,completely abolished

# Source: US6841533B1, “Conformationally constrained backbone cyclized interleukin-6 antagonists” (Peptor Limited, priority 1995, dated 2005)
